AC50 and cell number change data for 38 molecules are collected here from PubChem BioAssay AID2685 (National Center for Advancing Translational Sciences (NCATS), 2010).

Some of the results follow. The main result of the screen is listed elsewhere. These columns were measured beside it and carry no call. The list favours compounds with an active or inconclusive main result. The note in brackets gives the kind of curve behind each potency; many fits are weak.

The nature of this assay: qHTS Assay for Lipid Storage Modulators in Drosophila S3 Cells.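 As to cell number change: cells counted by Cell Tracker Red CMTPX staining in the red channel.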 Particulars: BODIPY lipid droplet fluorescence, 18-24 h; for cell number change: measured here: cell count max response, cells fed with added oleic acid. The method in brief: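 Laser-scanning cytometry quantifies lipid droplet accumulation (500–530 nm total intensity; droplet/cell object ratio) in oleic acid-fed (400 uM added) Drosophila S3 cells treated with a concentration series. 20 uM Triacsin C defined 100% inhibition.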

The mark [1] stands for this setting: measured here: lipid fluorescence (Fed channel) AC50, cells fed with added oleic acid.
The mark [2] stands for this setting: measured here: cell number channel AC50, cells fed with added oleic acid.

The AC50 is the concentration at which the activity in the assay is half-maximal. For `O=C(O)CCC(=O)Nc1ccccc1C(=O)NCCc1ccccc1`, the AC50 under setting [1] is 0.366 µM [falling, full curve, poor fit].

For the molecule `CCOC(=O)[C@H]1[C@H]2COc3cc(OC)ccc3[C@@H]2N2C(=O)N(c3ccc(Br)cc3)C(=O)[C@@]12C`, the cell number change was found to be 26.5%. Moreover, the concentration at half-maximal activity (AC50) under setting [1] is 29.1 µM [rising, single point].

For the molecule `O=C(N/N=C/c1ccc(OC(=O)c2ccco2)cc1)c1ccccn1`, the cell number change was -16.5%. The half-maximal activity concentration (AC50) under setting [1] was 0.92 µM [falling, full curve].

Take `Cc1cccc(C(=O)NCC(=O)OCC(=O)c2cc(C)n(CC3CCCO3)c2C)c1` (configuration not stated): the cell number change was determined as 26.3%. Further, the AC50 under setting [2] was 2.31 µM [rising, full curve, poor fit]. For the same molecule, the AC50 under setting [1] is 4.61 µM [rising, single point].

Take `O=C1Cc2cc(S(=O)(=O)Nc3cccc(F)c3)ccc2N1`: the cell number change was -12.5%. In addition, under setting [1], the AC50 was 23.1 µM [rising, partial curve].

For `COC(=O)/C=c1/s/c(=C(/C#N)C(=O)N2CCOCC2)n(-c2ccccc2)c1=O`, the cell number change was -55.1%. For the same molecule, the half-maximal activity concentration (AC50) under setting [2] is 3.66 µM [falling, full curve]. The half-maximal activity concentration (AC50) under setting [1] is 3.66 µM [falling, full curve].

Regarding `Cc1cccc(NC(=O)Cn2cnc3c(oc4ccccc43)c2=O)c1C`, the cell number change is 32.7%. In addition, the half-maximal activity concentration (AC50) under setting [2] was 0.184 µM [rising, full curve, poor fit].

Consider `O=C(c1cc(C(=O)NCCc2ccccc2)c(=O)n(CCc2ccccc2)c1)c1cc(Cl)ccc1O`, for which the cell number change is -1.79%.

Turning to `O=C(COc1ncnc2c(Cl)cc(Cl)cc12)Nc1cc([N+](=O)[O-])ccc1Cl`, the cell number change is -37.4%. In addition, the half-maximal activity concentration (AC50) under setting [2] was 29.1 µM [falling, single point].

With `COc1ccc(C(=O)/C=C/C(=O)N(CC(=O)NC2CCCCC2)Cc2ccccc2OC)c(O)c1`, the cell number change was -38.5%. The AC50 under setting [2] is 9.2 µM [falling, partial curve].

On to `O=C(NCc1ccccc1Cl)c1csc2c1CCCCC2`, for which the cell number change was determined as 43.3%. Besides, the AC50 under setting [2] is 11.6 µM [rising, single point].

For `O=C(Nc1ccccc1C(=O)Nc1ccccn1)c1cc(F)c(F)cc1Cl`, the half-maximal activity concentration (AC50) under setting [1] was 0.651 µM [rising, full curve].

With `O=C(Oc1ccccc1N1C(=O)C2CCCCC2C1=O)c1ccc(Cl)cc1` (configuration not stated), the cell number change was -2.39%. The AC50 under setting [1] is 0.291 µM [falling, partial curve].

`O=C(/C=C/c1ccc(Cl)cc1)NC(=S)NN1CCCCC1c1cccnc1` (configuration not stated): the cell number change was -7.22%. Also, under setting [2], the concentration at half-maximal activity (AC50) is 6.51 µM [rising, single point].

Regarding `COc1ccc(C(=O)n2nc(-c3ccco3)nc2N)cc1`, the cell number change was -14%. In addition, under setting [1], the half-maximal activity concentration (AC50) was 7.31 µM [falling, partial curve, poor fit].

On to `C=CCn1cc(C(=O)NCc2ccc(Cl)cc2)c(=O)c2cc(S(=O)(=O)N(CC)CC)ccc21`, for which the cell number change was -50.1%. The concentration at half-maximal activity (AC50) under setting [2] is 29.1 µM [falling, single point]. The AC50 under setting [1] is 0.411 µM [rising, partial curve].

In the case of `Cn1c2ccccc2c2cc(C(=O)OCC(=O)N3CC(=O)Nc4ccccc43)sc21`, the cell number change was -9.13%. Also, under setting [1], the AC50 was 0.366 µM [rising, full curve].

For the molecule `O=C(NNC(=O)c1ccccc1F)c1cccs1`, the cell number change is -5.13%.

As for `COc1ccccc1C(=O)NC(=S)Nc1ccc(NC(=O)c2cccs2)cc1`, the cell number change is -13.9%.

On to `COc1ccc(CNC(=O)CCCNC(=O)c2ccc(Cl)cc2)cc1OC`, for which the cell number change was 7.21%. The AC50 under setting [2] was 2.59 µM [rising, partial curve, poor fit].

For `COC(=O)N/N=C/c1ccccc1OCCOc1ccc(OC)cc1`, the cell number change worked out at 25.8%. In addition, under setting [2], the AC50 was 1.3 µM [rising, full curve, poor fit].

For the molecule `CCCCNC(=O)C1C2C=CC(C2)C1C(=O)O` (configuration not stated), the cell number change was found to be 11.1%. For the same molecule, the AC50 under setting [2] is 0.00517 µM [rising, full curve, poor fit]. In addition, the AC50 under setting [1] was 0.13 µM [rising, full curve, poor fit].

Turning to `CC(=O)c1c(N2CCOCC2)nc(=S)n(-c2ccc([N+](=O)[O-])cc2)c1C`, under setting [1], the AC50 was 0.517 µM [rising, full curve, poor fit].

In the case of `O=C1[C@@H]2[C@H]3CC[C@H](C3)[C@@H]2C(=O)N1O`, the cell number change was -4.48%.

On to `O=C(Nc1cccnc1)C1CCCN(S(=O)(=O)c2ccccc2)C1` (configuration not stated), for which the cell number change was found to be 73.5%. Moreover, the half-maximal activity concentration (AC50) under setting [2] was 29.1 µM [rising, single point].

As to `Cc1c(C)n2c(SCC(=O)Nc3ccc4c(c3)OCCO4)nnc2[nH]c1=O`, the cell number change was -11.2%.

On to `COCCn1c(SCC(=O)Nc2sccc2C(N)=O)nc2cc(Cl)ccc2c1=O`, for which the cell number change was -32.4%. The AC50 under setting [2] is 0.103 µM [falling, full curve, poor fit]. Further, the half-maximal activity concentration (AC50) under setting [1] was 0.116 µM [falling, full curve, poor fit].

Take `O=C(CN1CCOCC1)NCCc1ccccc1`: the cell number change worked out at 5.25%.

In the case of `COc1ccc(C(=O)Nn2c(SCC(=O)NC3CCCC3)nc3ccccc3c2=O)cc1`, the cell number change was 8.82%. Besides, the AC50 under setting [1] is 5.17 µM [rising, full curve].

Consider `S=c1[nH]nc(C2CCCCC2)n1/N=C/c1ccc(Br)s1`, for which the cell number change is -43.2%. The AC50 under setting [2] is 25.9 µM [falling, single point]. For the same molecule, the half-maximal activity concentration (AC50) under setting [1] was 23.1 µM [falling, partial curve, poor fit].

With `CCC(C)NC(=O)Cn1cc2c(n1)CCC(C)C2` (configuration not stated), the cell number change is -1.32%. Moreover, under setting [1], the AC50 is 0.58 µM [falling, full curve, poor fit].

As for `CCc1ccccc1NC(=O)Nc1cc(F)ccc1F`, the cell number change turned out to be 47.1%. In addition, under setting [2], the AC50 was 0.651 µM [rising, full curve]. For the same molecule, the AC50 under setting [1] is 0.366 µM [rising, full curve].

Take `O=C(NC1CCCCC1)c1cc(-c2cccs2)on1`: the cell number change came out at 23.3%.

Regarding `O=C(/C=C/c1cccc(F)c1)Nc1cc(S(=O)(=O)N2CCOCC2)ccc1N1CCCC1`, the cell number change is -66.7%. The AC50 under setting [2] was 29.1 µM [falling, single point].

With `O=C(CCCC1=NS(=O)(=O)c2ccccc2N1)Nc1ccccc1`, the AC50 under setting [1] was 16.4 µM [falling, partial curve, poor fit].

On to `COc1ccc(Cl)cc1C(=O)NNC(=O)COC(=O)CCN=C1NS(=O)(=O)c2ccccc21`, for which the half-maximal activity concentration (AC50) under setting [1] was 6.51 µM [rising, single point].

For `CCOc1ccccc1Nc1nnc(SCC(=O)Nc2nc(-c3ccc(OC)cc3)cs2)s1`, the cell number change is -19.7%. Moreover, the AC50 under setting [2] was 2.59 µM [falling, single point]. Under setting [1], the AC50 is 0.146 µM [falling, full curve, poor fit].

As for `O=C(CCN1CCCCCC1)Nc1cccc(Cl)c1`, the cell number change was found to be 3.26%. In addition, under setting [1], the concentration at half-maximal activity (AC50) was 18.4 µM [falling, single point].
